From paper PMC8732813
No constants are given. Whether binding was seen depends on the method and setting. Binding seen in cells or lysates may run through a third protein. Some entries that bind do so weakly or less than the wild type.

By UniProt entry, the sequences of proteins in these tests, tags left out. Where a name states a change or a piece, a line headed by the entry shows the natural chain unless it says otherwise.
UniProt P48995: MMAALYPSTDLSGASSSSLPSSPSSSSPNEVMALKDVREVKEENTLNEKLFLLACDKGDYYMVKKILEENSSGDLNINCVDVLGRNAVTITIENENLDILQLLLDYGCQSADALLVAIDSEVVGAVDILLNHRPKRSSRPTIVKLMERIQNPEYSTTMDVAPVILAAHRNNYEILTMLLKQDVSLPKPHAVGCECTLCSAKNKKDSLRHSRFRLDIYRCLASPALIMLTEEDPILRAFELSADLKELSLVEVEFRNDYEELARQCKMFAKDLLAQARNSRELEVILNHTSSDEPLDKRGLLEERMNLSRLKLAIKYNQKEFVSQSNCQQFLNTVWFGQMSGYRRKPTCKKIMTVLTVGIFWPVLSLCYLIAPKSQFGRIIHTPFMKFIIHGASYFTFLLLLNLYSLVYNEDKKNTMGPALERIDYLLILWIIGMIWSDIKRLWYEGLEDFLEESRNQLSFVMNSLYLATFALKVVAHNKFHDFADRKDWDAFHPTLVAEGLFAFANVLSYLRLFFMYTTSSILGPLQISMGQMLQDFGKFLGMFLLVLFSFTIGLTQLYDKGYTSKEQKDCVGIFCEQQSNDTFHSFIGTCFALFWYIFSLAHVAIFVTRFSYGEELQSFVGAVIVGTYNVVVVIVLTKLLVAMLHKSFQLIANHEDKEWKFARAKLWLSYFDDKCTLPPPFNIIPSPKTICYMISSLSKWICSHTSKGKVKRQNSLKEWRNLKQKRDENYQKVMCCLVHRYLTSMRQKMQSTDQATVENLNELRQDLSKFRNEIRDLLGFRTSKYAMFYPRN
UniProt Q96D31: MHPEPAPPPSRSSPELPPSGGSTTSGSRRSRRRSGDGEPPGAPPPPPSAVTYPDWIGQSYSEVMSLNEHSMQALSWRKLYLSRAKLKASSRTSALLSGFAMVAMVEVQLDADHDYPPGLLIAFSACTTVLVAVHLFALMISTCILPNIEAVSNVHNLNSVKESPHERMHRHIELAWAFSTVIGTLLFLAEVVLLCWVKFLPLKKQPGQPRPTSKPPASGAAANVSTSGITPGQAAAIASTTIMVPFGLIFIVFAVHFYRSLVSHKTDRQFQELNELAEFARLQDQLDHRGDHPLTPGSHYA

Assays:
[1] = molecular target: TRPC1, endogenous in HeLa cells (human (endogenous in HeLa)) (UniProt P48995); assay: co-IP; native HeLa cells, resting or 2 µM thapsigargin for 1 min, 1 mM extracellular Ca2+; NP-40 lysates immunoprecipitated with anti-TRPC1 or anti-STIM1 antibody and protein A-agarose overnight at 4 °C; immunoprecipitates de-glycosylated with PNGase F; Western blot with anti-Orai1 antibody
[2] = molecular target: Orai1α (long variant of Orai1), endogenous in HeLa cells (human (endogenous in HeLa)) (UniProt Q96D31); assay: co-IP; native HeLa cells in Ca2+-free medium (300 µM EGTA) or 1 mM CaCl2, with or without thapsigargin; Orai1α immunoprecipitated with anti-Orai1 N-terminal antibody (amino acids 2-61), then Orai1β from the supernatant with anti-Orai1 C-terminal antibody (amino acids 288-301); Western blot with anti-TRPC1 antibody (Fig. S5)

## Orai1α (long variant of Orai1), endogenous in HeLa cells (from UniProt Q96D31 1-301)
[1]
  binding: binds

## TRPC1, endogenous in HeLa cells (from UniProt P48995 1-793)
[2]
  binding: binds
